Measurements reported in PubChem BioAssay AID504791 (Drosophila RNAi Screening Center, 2011)
The screen tested about 23,000 reagents; below is a random part of those with a known target gene and a result. Over the whole deposit, 199 (0.86%) got an active call. 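Plate-scaled ratios behind the calls are not deposited; printed light signals are raw; many rows marked increased or decreased are still called inactive.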 The numbers tell different reagents against one gene apart. A plus sign joins genes that one reagent is predicted to hit. The record does not give: the direction of the score.

Test: 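Factors in Argonaute-based small RNA production and activity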 (primary screen)
Cell system: Drosophila S2-derived reporter cells
Reagent: long dsRNA against Drosophila genes, about 150-250 ng dsRNA per well (siRNA assay); about 80-120 ng (miRNA assay)
Duration: about 5 days (siRNA assay); about 4 days (miRNA assay)
Challenge: copper sulfate induction of reporters: 25 µM (siRNA assay); 200 mM stated (miRNA assay), 1-2 days before reading
Read-out: 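Per-well ratio of Renilla over firefly light, expressed relative to that plate's average ratio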
Call rule: 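First-pass picks had plate-scaled ratios over 1.5 for the siRNA assay, over 1.6 for the miRNA assay, or under 0.6; two distinct dsRNAs had to score alike on retest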

The first 3 records, to show the layout:
Gene	reagent no.	stable assay Renilla, run 1 (luminescence)	stable assay firefly, run 1 (luminescence)	activity call
Rint1	1	6740	2.65e5	inactive
CG3556	1	7710	5.45e5	inactive
CG17754	1	7378	4.29e5	inactive

The listing, repeating the preview:
Gene	reagent no.	stable assay Renilla, run 1 (luminescence)	stable assay firefly, run 1 (luminescence)	activity call
Rint1	1	6740	2.65e5	inactive
CG3556	1	7710	5.45e5	inactive
CG17754	1	7378	4.29e5	inactive
cic	1	5767	2.39e5	inactive
cic	2	5295	1.93e5	inactive
cic	3	6551	2.78e5	inactive
cic	4	6478	4.06e5	inactive
cic	5	5735	3.77e5	inactive
Nab2	1	10461	5.49e5	inactive
foxo	1	3167	1.86e5	inactive
foxo	2	7786	3.95e5	inactive
La	1	8620	5.50e5	inactive
Syx1A	1	5639	2.87e5	inactive
Syx1A	2	9222	4.48e5	inactive
CG4554	1	89502	5.65e5	inactive
Git	1	8143	4.81e5	inactive
Apc2	1	12110	5.60e5	inactive
CG8089	1	6207	2.63e5	inactive
Ctu2	1	2.92e5	1.31e6	inactive
Uhg2 + snoRNA:Me18S-G1620 + snoRNA:U14:30Ea	1	5340	4.70e5	inactive
Vinc	1	6910	3.97e5	inactive
mnb	1	4599	3.40e5	inactive
mnb	2	6079	4.18e5	inactive
mnb	3	4076	2.77e5	inactive
caps	1	5667	3.62e5	inactive
caps	2	9923	6.87e5	inactive
CG3942	1	6342	3.92e5	inactive
Fatp2	1	3436	4.41e5	inactive
Fatp2	2	5447	3.08e5	inactive
Fatp2	3	6058	3.44e5	inactive
CG14441	1	4827	1.87e5	inactive
CG1695	1	6471	3.49e5	inactive
tgy	1	6346	4.30e5	inactive
CG13847	1	6816	2.38e5	inactive
CG13847	2	4391	2.82e5	inactive
Nup160 + RfC38	1	9510	5.57e5	inactive
Ugt37C2	1	8134	4.11e5	inactive
sls	1	8423	2.96e5	inactive
sls	2	5988	4.36e5	inactive
sls	3	5982	3.70e5	inactive
Nipsnap	1	7486	3.70e5	inactive
CG32987	1	10027	6.15e5	inactive
gcm	1	6947	3.58e5	inactive
Pex3	1	8557	3.82e5	inactive
unc-13-4A	1	5887	3.63e5	inactive
unc-13-4A	2	6195	3.72e5	inactive
unc-13-4A	3	4604	2.28e5	inactive
unc-13-4A	4	5411	3.72e5	inactive
Lkr	1	6184	3.55e5	inactive
ase	1	5990	4.44e5	inactive
CG32639	1	5574	4.01e5	inactive
CG16998	1	7090	3.83e5	inactive
CG14043	1	7018	3.96e5	inactive
CG3062	1	6212	3.90e5	inactive
Mtch	1	7678	2.98e5	inactive
cib	1	4032	3.08e5	inactive
slam	1	9855	6.14e5	inactive
CG17134	1	7923	3.51e5	inactive
Gr58c	1	5887	2.77e5	inactive
capu	1	4383	2.85e5	inactive
capu	2	4320	2.61e5	inactive
capu	3	7767	4.47e5	inactive
capu	4	21705	7.74e5	inactive
CG12715	1	5604	4.16e5	inactive
CG15740	1	4231	2.69e5	inactive
CG15740	2	5794	4.36e5	inactive
sgl	1	7851	4.03e5	inactive
CG13527	1	6911	4.26e5	inactive
CG5078	1	8208	3.61e5	inactive
CG14401	1	6867	4.03e5	inactive
CG14401	2	10157	6.04e5	inactive
Syb	1	7962	3.46e5	inactive
Tengl4	1	7082	3.80e5	inactive
tkv + CR14033 + tRNA:Asp-GTC-2-1 + 1 more	1	2824	2.96e5	inactive
SkpF + CG5357 (retired record)	1	5828	4.16e5	inactive
CG11449	1	8035	4.28e5	inactive
Pstk + Tim9b	1	8255	5.98e5	inactive
Pstk + Tim9b	2	5842	3.20e5	inactive
CG32379	1	6328	3.48e5	inactive
CG16739	1	6482	3.78e5	inactive
Krn	1	10314	5.65e5	inactive
CG10257	1	6735	3.51e5	inactive
Ptx1	1	6043	3.53e5	inactive
